Results taken from patent US20230174623A1.

Assays:
[1] = molecular target: collagen type I (collagen I coated 96 well-plates, Gibco); test: ELISA, collagen I coated plate
[2] = molecular target: collagen type IV (collagen IV coated 96 well-plates, Corning); test: ELISA, collagen IV coated plate
[3] = molecular target: collagen type I (collagen I coated 96 well-plates, Gibco); test: ELISA, collagen I coated plate (Example 2)
[4] = molecular target: collagen type I (collagen I coated 96 well-plates, Gibco); test: ELISA on collagen I coated plate, anti-6xHis-HRP
[5] = molecular target: collagen type IV (collagen IV coated 96 well-plates, Corning); test: ELISA on collagen IV coated plate, anti-6xHis-HRP
[6] = molecular target: collagen type I (collagen I coated 96 well-plates, Gibco); test: ELISA, left panel Collagen I, anti-6xHis-HRP
[7] = molecular target: collagen type IV (collagen IV coated 96 well-plates, Corning); test: ELISA, right panel Collagen IV, anti-6xHis-HRP
[8] = molecular target: collagen type I (collagen I coated 96 well-plates, Gibco); test: closing sentence of the example on its collagen binding assay
[9] = molecular target: collagen type IV (collagen IV coated 96 well-plates, Corning); test: as above
[10] = molecular target: collagen type I (collagen I coated 96 well-plates, Gibco); test: ELISA on collagen I, anti-His-HRP
[11] = molecular target: collagen type I (collagen I coated 96 well-plates, Gibco); test: ELISA, collagen type I, anti-His-HRP detection
[12] = molecular target: collagen type I (collagen I coated 96 well-plates, Gibco); test: ELISA and competition ELISA on collagen I, competitor biotinylated lumican
[13] = molecular target: collagen type I (collagen I coated 96 well-plates, Gibco); test: competition ELISA on collagen I; 50 nM biotinylated lumican detected with streptavidin-HRP, rmLAIR1 varied

Measured: binding

B1: Lumican-Gluc (His-tagged murine lumican fused to Gaussia luciferase) (protein)
chain: QYYDYDIPLFMYGQISPNCAPECNCPHSYPTAMYCDDLKLKSVPMVPPGIKYLYLRNNQIDHIDEKAFENVTDLQWLILDHNLLENSKIKGKVFSKLKQLKKLHINYNNLTESVGPLPKSLQDLQLTNNKISKLGSFDGLVNLTFIYLQHNQLKEDAVSASLKGLKSLEYLDLSFNQMSKLPAGLPTSLLTLYLDNNKISNIPDEYFKRFTGLQYLRLSHNELADSGVPGNSFNISSLLELDLSYNKLKSIPTVNENLENYYLEVNELEKFDVKSFCKILGPLSYSKIKHLRLDGNPLTQSSLPPDMYECLRVANEITVNGGGSGGGSGGGSKPTENNEDFNIVAVASNFATTDLDADRGKLPGKKLPLEVLKEMEANARKAGCTRGCLICLSHIKCTPKMKKFIPGRCHTYEGDKESAQGGIGEAIVDIPEIPGFKDLEPMEQFIAQVDLCVDCTTGCLKGLANVQCSDLLKKWLPQRCATFASKIQGQVDKIKGAGGDGGGSHHHHHH
binds: [1] | [2] | [3] | [4] | [5]

B2: Lumican-MSA-SpG2 (protein)
chain: QYYDYDIPLFMYGQISPNCAPECNCPHSYPTAMYCDDLKLKSVPMVPPGIKYLYLRNNQIDHIDEKAFENVTDLQWLILDHNLLENSKIKGKVFSKLKQLKKLHINYNNLTESVGPLPKSLQDLQLTNNKISKLGSFDGLVNLTFIYLQHNQLKEDAVSASLKGLKSLEYLDLSFNQMSKLPAGLPTSLLTLYLDNNKISNIPDEYFKRFTGLQYLRLSHNELADSGVPGNSFNISSLLELDLSYNKLKSIPTVNENLENYYLEVNELEKFDVKSFCKILGPLSYSKIKHLRLDGNPLTQSSLPPDMYECLRVANEITVNGGGSGGGSEAHKSEIAHRYNDLGEQHFKGLVLIAFSQYLQKCSYDEHAKLVQEVTDFAKTCVADESAANCDKSLHTLFGDKLCAIPNLRENYGELADCCTKQEPERNECFLQHKDDNPSLPPFERPEAEAMCTSFKENPTTFMGHYLHEVARRHPYFYAPELLYYAEQYNEILTQCCAEADKESCLTPKLDGVKEKALVSSVRQRMKCSSMQKFGERAFKAWAVARLSQTFPNADFAEITKLATDLTKVNKECCHGDLLECADDRAELAKYMCENQATISSKLQTCCDKPLLKKAHCLSEVEHDTMPADLPAIAADFVEDQEVCKNYAEAKDVFLGTFLYEYSRRHPDYSVSLLLRLAKKYEATLEKCCAEANPPACYGTVLAEFQPLVEEPKNLVKTNCDLYEKLGEYGFQNAILVRYTQKAPQVSTPTLVEAARNLGRVGTKCCTLPEDQRLPCVEDYLSAILNRVCLLHEKTPVSEHVTKCCSGSLVERRPCFSALTVDETYVPKEFKAETFTFHSDICTLPEKEKQIKKQTALAELVKHKPKATAEQLKTVMDDFAQFLDTCCKAADKDTCFSTEGPNLVTRCKDALAGGGSTYKLVINGKTLKGETTTEAVDAATAEKVFKQYANDYGVDGEWTYDDATKTFTVTEKPEVIDASELTPAVTTYKLVINGKTLKGETTTKAVDAETAEKAFKQYANDYGVDGVWTYDDATKTFTVTEHHHHHH
binds: [1] | [2] | [6] | [7] | [8] | [9]

B3: extracellular domain of His-tagged murine LAIR-1 (receptor)
chain: QEGSLPDITIFPNSSLMISQGTFVTVVCSYSDKHDLYNMVRLEKDGSTFMEKSTEPYKTEDEFEIGPVNETITGHYSCIYSKGITWSERSKTLELKVIKENVIQTPAPGPTSDTSWLKTYSIYHHHHHH
binds: [10] | [11] | [12] | [13]

B4: Lumican-MSA-Fn3 (protein)
chain: QYYDYDIPLFMYGQISPNCAPECNCPHSYPTAMYCDDLKLKSVPMVPPGIKYLYLRNNQIDHIDEKAFENVTDLQWLILDHNLLENSKIKGKVFSKLKQLKKLHINYNNLTESVGPLPKSLQDLQLTNNKISKLGSFDGLVNLTFIYLQHNQLKEDAVSASLKGLKSLEYLDLSFNQMSKLPAGLPTSLLTLYLDNNKISNIPDEYFKRFTGLQYLRLSHNELADSGVPGNSFNISSLLELDLSYNKLKSIPTVNENLENYYLEVNELEKFDVKSFCKILGPLSYSKIKHLRLDGNPLTQSSLPPDMYECLRVANEITVNGGGSGGGSEAHKSEIAHRYNDLGEQHFKGLVLIAFSQYLQKCSYDEHAKLVQEVTDFAKTCVADESAANCDKSLHTLFGDKLCAIPNLRENYGELADCCTKQEPERNECFLQHKDDNPSLPPFERPEAEAMCTSFKENPTTFMGHYLHEVARRHPYFYAPELLYYAEQYNEILTQCCAEADKESCLTPKLDGVKEKALVSSVRQRMKCSSMQKFGERAFKAWAVARLSQTFPNADFAEITKLATDLTKVNKECCHGDLLECADDRAELAKYMCENQATISSKLQTCCDKPLLKKAHCLSEVEHDTMPADLPAIAADFVEDQEVCKNYAEAKDVFLGTFLYEYSRRHPDYSVSLLLRLAKKYEATLEKCCAEANPPACYGTVLAEFQPLVEEPKNLVKTNCDLYEKLGEYGFQNAILVRYTQKAPQVSTPTLVEAARNLGRVGTKCCTLPEDQRLPCVEDYLSAILNRVCLLHEKTPVSEHVTKCCSGSLVERRPCFSALTVDETYVPKEFKAETFTFHSDICTLPEKEKQIKKQTALAELVKHKPKATAEQLKTVMDDFAQFLDTCCKAADKDTCFSTEGPNLVTRCKDALAGGGSVSDVPRDLEVVAATPTSLLISWCCSDNCSNSYRITYGETGGNSPVQEFTVPRSCFMATISGLKPGVDYTITAYAVTDSNGPHPISINYRTHHHHHH
binds: [1] | [2] | [6] | [7] | [8] | [9]

These are yes or no findings as the source states them, for the method shown. A result given as binding can be weak or reduced; the word gives no strength. For part of these data: Tags and fused reporters may be left off the sequences shown.
